Reference: patent US6656972B2, “Control of pain with endogenous cannabinoids” (Neurosciences Research Foundation, Inc., priority 1998, dated 2003)

Assay: Isotope dilution GC/MS of endogenous anandamide and PEA in rat paw skin
Conditions: n=8, means±s.e.m.

SMILES	endogenous amount in rat paw skin
CCCCCCCCCCCCCCCC(=O)NCCO [PEA, palmitylethanolamide]	692±119 pmol per g of tissue
CCCCC/C=C\C/C=C\C/C=C\C/C=C\CCCC(=O)NCCO [anandamide, arachidonylethanolamide]	49±9 pmol per g of tissue
